# Data source: PubChem BioAssay AID1259308 (NCATS, 2017)
# Test: 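Genes whose loss raises luciferase production in HEK293 cells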 (primary screen)
# Cells: human HEK293 embryonic kidney cells stably expressing firefly luciferase (HEK-CMV-Luc2-Hygro)
# Reagent: single siRNA against human genes, 0.8 pmol siRNA per well
# Timing: 72 h
# Measurement: 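Reporter luminescence and viable-cell signal on separate replicate plates, given as percent of non-targeting control and median/MAD z-scores, plus per-cell luciferase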
# Scale: total luciferase, z-score and total luciferase, % of control: higher = more reporter protein produced; luciferase per cell, z-score: higher = more reporter output per viable cell; viable cells, % of control: higher = more viable cells
# Call rule: 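Active when the median/MAD z-score for overall luciferase is greater than 3; a gene was taken forward for validation with new siRNAs if at least two of its three siRNAs passed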
# Meaning of the calls: active = raised luciferase; inactive = no rise
# Shown is a random part of about 59,000 reagents. About 1,510 of them (2.6%) count as active. 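Calls use total luciferase alone and ignore viability, so some active siRNAs may act by altering cell number.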
target gene,PubChem SID,"total luciferase, z-score","total luciferase, % of control","luciferase per cell, z-score","viable cells, % of control",outcome
TJP2 (GeneID 9414),SID160722156,-0.098,79.9,-0.0415,90.3,inactive
TJP2 (GeneID 9414),SID160722157,0.301,87.9,0.395,88.5,inactive
TJP2 (GeneID 9414),SID160722158,0.0875,83.6,-0.0916,95.7,inactive
IQCB1 (GeneID 9657),SID160722733,1.54,113,0.981,97.1,inactive
IQCB1 (GeneID 9657),SID160722734,0.619,94.2,1.62,68.7,inactive
IQCB1 (GeneID 9657),SID160722735,-0.444,73.1,-0.432,91.5,inactive
CASTOR3P (GeneID 352954),SID160765130,0.838,98.6,0.838,88.3,inactive
CASTOR3P (GeneID 352954),SID160765131,-1.01,61.8,-1.03,90.5,inactive
CASTOR3P (GeneID 352954),SID160765133,-0.114,79.6,-0.728,108,inactive
EPHA3 (GeneID 2042),SID160760837,-0.224,77.4,-0.136,89.7,inactive
EPHA3 (GeneID 2042),SID160760848,0.15,84.9,-0.357,104,inactive
EPHA3 (GeneID 2042),SID160760858,-0.413,73.7,-0.889,104,inactive
MANSC1 (GeneID 54682),SID160742037,-0.0107,81.7,0.425,81.6,inactive
MANSC1 (GeneID 54682),SID160742038,-0.383,74.3,-0.418,92.6,inactive
MANSC1 (GeneID 54682),SID160742039,2.12,124,1.09,104,inactive
CHST3 (GeneID 9469),SID160722287,0.307,88,0.269,91.6,inactive
CHST3 (GeneID 9469),SID160722288,-0.25,76.9,-0.153,89.5,inactive
CHST3 (GeneID 9469),SID160732187,-0.409,73.8,-0.404,91.7,inactive
TRMT10A (GeneID 93587),SID160754511,0.24,86.7,0.404,87.1,inactive
TRMT10A (GeneID 93587),SID160754513,-0.891,64.2,-0.306,77.7,inactive
TRMT10A (GeneID 93587),SID160754514,-0.456,72.8,-0.531,93.6,inactive
FBXL3 (GeneID 26224),SID160737783,1.15,105,0.327,107,inactive
FBXL3 (GeneID 26224),SID160737784,-1.66,48.8,-2.08,94.2,inactive
FBXL3 (GeneID 26224),SID160737785,0.124,84.3,0.623,80,inactive
RPL17 (GeneID 6139),SID160716052,-1.57,50.7,-0.982,73.4,inactive
RPL17 (GeneID 6139),SID160716053,-2.77,26.8,-2.51,58.1,inactive
RPL17 (GeneID 6139),SID160716054,-2.96,23.1,-2.04,44.2,inactive
MPHOSPH9 (GeneID 10198),SID160726794,-0.189,78.1,-0.944,112,inactive
MPHOSPH9 (GeneID 10198),SID160726796,0.503,91.9,0.513,89.7,inactive
MPHOSPH9 (GeneID 10198),SID160726801,-1.19,58.1,-1.64,100,inactive
CYB5R2 (GeneID 51700),SID160741229,-0.0644,80.6,0.354,82,inactive
CYB5R2 (GeneID 51700),SID160741230,0.0868,83.6,0.45,83,inactive
CYB5R2 (GeneID 51700),SID160741231,0.498,91.8,0.646,86.5,inactive
VCPIP1 (GeneID 80124),SID160750068,0.7,95.8,0.527,93.2,inactive
VCPIP1 (GeneID 80124),SID160750069,-1.61,49.8,-1.42,81,inactive
VCPIP1 (GeneID 80124),SID160750070,0.0575,83,-0.595,109,inactive
TPRG1L (GeneID 127262),SID160756602,-1.02,61.6,0.0982,67.1,inactive
TPRG1L (GeneID 127262),SID160756603,1.8,118,1.19,96.2,inactive
TPRG1L (GeneID 127262),SID160756604,0.0716,83.3,0.0116,92.8,inactive
TMEM138 (GeneID 51524),SID160740933,0.589,93.6,0.0166,104,inactive
TMEM138 (GeneID 51524),SID160740934,-1.02,61.6,-1.49,102,inactive
TMEM138 (GeneID 51524),SID160740935,-0.157,78.8,0.232,82.8,inactive
TRAPPC14 (GeneID 55262),SID160743378,-0.134,79.2,0.217,83.6,inactive
TRAPPC14 (GeneID 55262),SID160743379,-0.304,75.8,0.0364,83.9,inactive
TRAPPC14 (GeneID 55262),SID160743380,1.24,107,1.12,88.8,inactive
STAT6 (GeneID 6778),SID160717447,3.73,156,2.61,87.7,active
STAT6 (GeneID 6778),SID160717448,2.12,124,1.51,93,inactive
STAT6 (GeneID 6778),SID160717449,2.44,130,1.04,111,inactive
IL13RA1 (GeneID 3597),SID160775782,-0.898,64,-0.713,86.3,inactive
IL13RA1 (GeneID 3597),SID160775783,-0.772,66.5,-0.538,85.7,inactive
IL13RA1 (GeneID 3597),SID160775784,0.0718,83.3,-0.295,101,inactive
BCL2L12 (GeneID 83596),SID160724598,1.36,109,1.56,80.7,inactive
BCL2L12 (GeneID 83596),SID160731992,-0.501,71.9,-1.16,109,inactive
BCL2L12 (GeneID 83596),SID160751231,-1.46,52.8,-1.08,78.4,inactive
SAGE1 (GeneID 55511),SID160743740,-0.257,76.8,0.0159,85.4,inactive
SAGE1 (GeneID 55511),SID160743741,0.152,84.9,0.188,90.3,inactive
SAGE1 (GeneID 55511),SID160743742,0.348,88.8,0.48,87.5,inactive

3 entries from above, set out differently:
| target gene | PubChem SID | total luciferase, z-score | total luciferase, % of control | luciferase per cell, z-score | viable cells, % of control | outcome |
| --- | --- | --- | --- | --- | --- | --- |
| IL13RA1 (GeneID 3597) | SID160775784 | 0.0718 | 83.3 | -0.295 | 101 | inactive |
| BCL2L12 (GeneID 83596) | SID160724598 | 1.36 | 109 | 1.56 | 80.7 | inactive |
| BCL2L12 (GeneID 83596) | SID160731992 | -0.501 | 71.9 | -1.16 | 109 | inactive |
